From article PMC13378934
No constants are given. Whether binding was seen depends on the method and setting. Binding seen in cells or lysates may run through a third protein. Some entries that bind do so weakly or less than the wild type. For part of these data: Where a sequence is shown, tags or fusion partners need not be part of it. Each block holds one binder with its values, some of them ahead of it.

Tests used:
[1] = biological target: T1, Flag-CARD19 (caspase activation and recruitment domain 19) (UniProt Q9D1I2); test: co-IP; 500 ug protein of BV2 cells incubated with 1 ug Flag antibody (or rabbit IgG) at 4°C overnight, protein A/G agarose beads 2 h at 4°C, five washes with PBS, western blotting
T1 sequence: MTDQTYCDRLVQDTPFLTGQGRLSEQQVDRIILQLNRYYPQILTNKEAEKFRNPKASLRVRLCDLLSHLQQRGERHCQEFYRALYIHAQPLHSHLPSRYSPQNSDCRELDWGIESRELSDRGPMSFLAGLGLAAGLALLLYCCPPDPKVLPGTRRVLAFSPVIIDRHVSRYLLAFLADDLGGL

[2] = biological target: T2, mitochondrial inner membrane protein 19 (MIC19) (mouse (endogenous in BV2)) (UniProt Q9CRB9); test: co-IP; 500 ug protein of BV2 cells incubated with 1 ug MIC19 antibody (or rabbit IgG) at 4°C overnight, protein A/G agarose beads 2 h at 4°C, five washes with PBS, western blotting; cells with or without OGD/R, with Vector or Flag-CARD19, with LV-NC or LV-shCARD19
T2 sequence: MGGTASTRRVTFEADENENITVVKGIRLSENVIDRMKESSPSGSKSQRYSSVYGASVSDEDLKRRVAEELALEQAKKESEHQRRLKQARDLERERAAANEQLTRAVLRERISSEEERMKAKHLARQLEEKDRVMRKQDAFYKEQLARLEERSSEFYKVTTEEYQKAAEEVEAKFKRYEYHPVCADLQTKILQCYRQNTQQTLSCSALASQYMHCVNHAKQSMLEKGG

- binding [1]: binds
B1: mitochondrial inner membrane protein 19 (MIC19) (protein, UniProt Q9CRB9 1-227)
chain: T2 sequence

- binding [1]: binds
- binding [2]: binds
B2: sorting and assembly machinery component 50 (SAMM50) (protein, UniProt Q8BGH2 1-469)
chain: MGTVHARSLEPLPSSGTDFGALGEEAEFVEVEPEAKQEILENKDVVVQHVHFDGLGRTKDDIIICEIGEVFKAKNLIEVMRRSHEAREKLLRLGIFRQVDVLIDTCHGEDALPNGLDVTFEVTELRRLTGSYNTMVGNNEGSMVLGLKLPNLLGRAEKVTFQFSYGTKETSYGLSFFKPQPGNFERNFSVNLYKVTGQFPWSSLRETDRGVSAEYSFPLWKTSHTVKWEGVWRELGCLSRTASFAVRKESGHSLKSSLSHAMVIDSRNSSILPRRGALFKVNQELAGYTGGDVSFIKEDFELQLNKPLALDSVFSTSLWGGMLVPIGDKPSSIADRFYLGGPTSVRGFSMHSIGPQSEGDYLGGEAYWAGGLHLYTPLPFRPGQGGFGELFRTHFFLNAGNLCNLNYGEGPKAHIRKLAECIRWSYGAGVVLRLGNIARLELNYCIPMGVQGGDRICDGVQFGAGIRFL
